Results from PMC10797686.
These are yes or no findings as the source states them, for the method shown. Binding seen in cells or lysates may run through a third protein. Sequences can lack the tags named with a protein.

Protein sequences, listed by entry. Tags and fused reporters are not part of them.
UniProt O95863: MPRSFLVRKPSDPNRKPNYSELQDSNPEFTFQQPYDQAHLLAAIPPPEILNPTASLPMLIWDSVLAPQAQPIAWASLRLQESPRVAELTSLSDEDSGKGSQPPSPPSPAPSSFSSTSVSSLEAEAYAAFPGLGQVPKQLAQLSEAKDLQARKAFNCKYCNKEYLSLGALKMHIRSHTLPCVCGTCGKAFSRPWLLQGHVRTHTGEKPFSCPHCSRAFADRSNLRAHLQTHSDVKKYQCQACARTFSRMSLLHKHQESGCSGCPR

Molecular target: Flag-tagged Snail1 (Flag-Snail1) (UniProt O95863)
Assay: co-IP; exogenous co-IP: HEK293T, AGS and MKN-45 cells transfected for 48 h with Flag- and HA-tagged vectors (truncation mutants in HEK293T only); anti-Flag antibody on Protein A/G magnetic beads, 30 min at room temperature, washed four times with PBST; Western blot

binding: no binding
B1: HA-tagged USP35 truncation mutant with the C-terminal USP domain deleted (domain or fragment, UniProt Q9P2H5 1-432)
chain: MDKILEAVVTSSYPVSVKQGLVRRVLEAARQPLEREQCLALLALGARLYVGGAEELPRRVGCQLLHVAGRHHPDVFAEFFSARRVLRLLQGGAGPPGPRALACVQLGLQLLPEGPAADEVFALLRREVLRTVCERPGPAACAQVARLLARHPRCVPDGPHRLLFCQQLVRCLGRFRCPAEGEEGAVEFLEQAQQVSGLLAQLWRAQPAAILPCLKELFAVISCAEEEPPSSALASVVQHLPLELMDGVVRNLSNDDSVTDSQMLTAISRMIDWVSWPLGKNIDKWIIALLKGLAAVKKFSILIEVSLTKIEKVFSKLLYPIVRGAALSVLKYMLLTFQHSHEAFHLLLPHIPPMVASLVKEDSNSGTSCLEQLAELVHCMVFRFPGFPDLYEPVMEAIKDLHVPNEDRIKQLLGQDAWTSQKSELAGFYPRL
